The list shows a part of the results.

For the assay, the target named is T1, OsSMF1 (Oryza sativa, UniProt Q6ZLB0 1-436).
T1 sequence: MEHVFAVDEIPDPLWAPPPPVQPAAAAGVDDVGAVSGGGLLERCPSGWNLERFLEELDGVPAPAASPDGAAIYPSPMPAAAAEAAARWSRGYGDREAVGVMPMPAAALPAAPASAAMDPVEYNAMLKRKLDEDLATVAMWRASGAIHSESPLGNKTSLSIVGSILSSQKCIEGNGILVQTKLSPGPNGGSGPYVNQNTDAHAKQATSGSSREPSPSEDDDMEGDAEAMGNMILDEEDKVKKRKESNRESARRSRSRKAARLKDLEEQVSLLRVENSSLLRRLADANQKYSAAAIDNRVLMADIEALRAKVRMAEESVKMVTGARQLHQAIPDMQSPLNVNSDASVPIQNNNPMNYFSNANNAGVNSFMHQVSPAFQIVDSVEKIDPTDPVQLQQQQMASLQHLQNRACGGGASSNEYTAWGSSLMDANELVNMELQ
The experiment in a line: protein-binding microarray (RPBM); PBS, 2% BSA, 51.3 ng/ul salmon testes DNA, 50 uM zinc acetate, 200 nM TF, 25 C, 1 h; high values mean tight binding. The following applies: protein: recombinant; tags: N-terminal polyhistidine and DsRed monomer fusion (pET32a); chain copies: 2; label: CyDye5-dUTP incorporated in the synthesized complementary strand; 3' TTTTT single-stranded linker to array surface; dsDNA, one strand shown. The procedure, abridged:
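Transcription factors were made in E. coli BL21-CodonPlus as N-terminal fusions to a polyhistidine tag and DsRed, then purified on Ni–NTA. After primer extension with Cy5-dUTP and blocking with 2% BSA, a custom Agilent array was exposed for 1 h at 25 °C to 200 nM protein in PBS, 2% BSA, salmon testes DNA and 50 µM zinc acetate. Washed arrays were scanned on an Axon 4000B, and the binding signal is per-feature fluorescence intensity in arbitrary units.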
Turning to “GAGAGGATGACACGTGGGCCCCGCATGTCAAGGGTCAAACCGGAGTCACCTAGTGCAG”, the binding signal was 9500 fluorescence intensity (a.u.).

Consider “AAAGAGCAGGACATGAGCGGAAATTGCTAGGGCCATGACGCGGAGTCACCTAGTGCAG”, for which the binding signal was 3150 fluorescence intensity (a.u.).

For the sequence “AGATCACACACAACACGCACATCACGAACCGGACCAAACCCGGAGTCACCTAGTGCAG”, the binding signal is 3660 fluorescence intensity (a.u.).

As for “GTATATTCTGGCCATGAGGTGACGGGAAGCCCACGTCGATCGGAGTCACCTAGTGCAG”, the binding signal is 4170 fluorescence intensity (a.u.).

Regarding “AGCTCAAGGCACGCCGCGTGGAACCCGTCCGCGCCGAGCGCGGAGTCACCTAGTGCAG”, the binding signal is 3850 fluorescence intensity (a.u.).

“TATGTTGCCTAGATACATGACCTGTCCCTCCAGTCTCCCTCGGAGTCACCTAGTGCAG”: the binding signal was 5400 fluorescence intensity (a.u.).

With “TTTTGTAACTCGATGACAAGTTGAGGGTCCTTTGGTGTACCGGAGTCACCTAGTGCAG”, the binding signal is 12900 fluorescence intensity (a.u.).

As to “CTGTTTGCAATTTGCAATGAGGTGTCAACTACCTCATTCTCGGAGTCACCTAGTGCAG”, the binding signal is 3430 fluorescence intensity (a.u.).

Regarding “AGTGGGTTTCGTCCAAATACCACGCTGGGAGTGGGCTTTACGGAGTCACCTAGTGCAG”, the binding signal was 3900 fluorescence intensity (a.u.).

For “ACGCACTTTGACACTTGTCACTTGAGTACATATATTTTGGCGGAGTCACCTAGTGCAG”, the binding signal is 3160 fluorescence intensity (a.u.).

As to “GCCTCCCTCTGTGACATCGTCGAATTTTATCGCGCCCTCCCGGAGTCACCTAGTGCAG”, the binding signal was 3790 fluorescence intensity (a.u.).

In the case of “CCCAACTACGACCTCCCCGCCCTGGCGCACGGCGGGACCGCGGAGTCACCTAGTGCAG”, the binding signal is 3550 fluorescence intensity (a.u.).

For the sequence “CGTCCGTGCGAATGATTGCATCTGCGCGAGCGACGCCGTTCGGAGTCACCTAGTGCAG”, the binding signal is 3430 fluorescence intensity (a.u.).

Take “ATTGATGTGAAGAACAAATAGTCAATATTATTCTGTATATCGGAGTCACCTAGTGCAG”: the binding signal is 16900 fluorescence intensity (a.u.).

As for “GCTAGGTTCAACGTCATGCCTCATGTTGTCTATTGCTGTTCGGAGTCACCTAGTGCAG”, the binding signal was 4070 fluorescence intensity (a.u.).

Consider “GCGGGTAGGATGGAAGGCCAGCGAGGTGGCACCGCTGGCGCGGAGTCACCTAGTGCAG”, for which the binding signal is 3540 fluorescence intensity (a.u.).

For the sequence “GTCACCAGGGTTGGTTGTTGGAGCCTTTGGACCAATCACGCGGAGTCACCTAGTGCAG”, the binding signal is 6470 fluorescence intensity (a.u.).

Take “AATTTGGTGACGCGTCTCTTTTCTCTCTCTTCTTCTTCTTCGGAGTCACCTAGTGCAG”: the binding signal is 14400 fluorescence intensity (a.u.).

Consider “CTTTTGCGACTGCTCGTGTCAGCGACGTGGCTGAACCGCGCGGAGTCACCTAGTGCAG”, for which the binding signal is 5260 fluorescence intensity (a.u.).

Turning to “GAACATAATGTTGTTGTCTGAAGTTGCACAGTCATTAAGGCGGAGTCACCTAGTGCAG”, the binding signal is 4310 fluorescence intensity (a.u.).

For “TGTCTGTTACTTATTTCAAGTCATTTATGTTTAGAAACACCGGAGTCACCTAGTGCAG”, the binding signal was 3220 fluorescence intensity (a.u.).

As to “CCGGAAATCTGAAAATTCTGTCCACGTGGGCCCAGAAACCCGGAGTCACCTAGTGCAG”, the binding signal was 10300 fluorescence intensity (a.u.).

For the sequence “GATAAAACATGATTAATATTTTATGCGTGACTTGTCTTTTCGGAGTCACCTAGTGCAG”, the binding signal is 3460 fluorescence intensity (a.u.).

As for “CTTATTACTGTTCGAGCTTATGTCACATCTATTCCAAGGACGGAGTCACCTAGTGCAG”, the binding signal was 4460 fluorescence intensity (a.u.).

For “CGGCGCGCAGTGGGACCCACGTGTCGGTCTCATACTCACCCGGAGTCACCTAGTGCAG”, the binding signal is 8520 fluorescence intensity (a.u.).

Take “GTTCTTCACCTCTCGCTCCTATAAAATCCAACGTGGACAACGGAGTCACCTAGTGCAG”: the binding signal is 30500 fluorescence intensity (a.u.).

Regarding “AACAAACCAGAATCCACGCAAGCAGCAGCCGAAGGGATGCCGGAGTCACCTAGTGCAG”, the binding signal was 6050 fluorescence intensity (a.u.).

Regarding “CAACTGTGTACGTCATTTTGTTTGCTCTTTTATACATGTACGGAGTCACCTAGTGCAG”, the binding signal is 7200 fluorescence intensity (a.u.).

With “GGATGGTAGTGCGGAGAGAGTGACGTGTAAGCGAGGAATCCGGAGTCACCTAGTGCAG”, the binding signal was 11900 fluorescence intensity (a.u.).

Turning to “GCTACATGCTAATTGTGTATATCTAACATGCGCTGACGGCCGGAGTCACCTAGTGCAG”, the binding signal is 4080 fluorescence intensity (a.u.).

Regarding “TATGGTTTTATGTTATTATTGATATATGAAGTACATTTATCGGAGTCACCTAGTGCAG”, the binding signal is 3590 fluorescence intensity (a.u.).

On to “GATGGGAAGGCCGCGCCGCGTTGACGTGGGCTGCGGACTGCGGAGTCACCTAGTGCAG”, for which the binding signal is 8060 fluorescence intensity (a.u.).

As for “GGAAGATTAGCTTGCCACCTCATTAATATTTTCAGAAATACGGAGTCACCTAGTGCAG”, the binding signal was 4090 fluorescence intensity (a.u.).

Turning to “ACCGTAAAAGAAAATTGAACTGACTAGATCGGCCGAGCAACGGAGTCACCTAGTGCAG”, the binding signal was 3180 fluorescence intensity (a.u.).

As to “GGAATTTGCAGACATGTCATCAGCCAGCGTGGCTGAAGAACGGAGTCACCTAGTGCAG”, the binding signal was 3670 fluorescence intensity (a.u.).

As to “CCTGTCGATCCATCGTTGCCACGTCGATCCGCACCTCCGTCGGAGTCACCTAGTGCAG”, the binding signal was 23400 fluorescence intensity (a.u.).

Turning to “CGGCGACGTCTGATCCGCCATGAGAGCGAGCAGTTTGTTCCGGAGTCACCTAGTGCAG”, the binding signal was 3140 fluorescence intensity (a.u.).

For the sequence “AATCGGCCGCCGGGCACCTGACCTGACCTGACCTCTCTTCCGGAGTCACCTAGTGCAG”, the binding signal is 3150 fluorescence intensity (a.u.).

On to “CTAATGGGAGCACCATCAGTGTTGGCATTTGCACATGCCACGGAGTCACCTAGTGCAG”, for which the binding signal was 3280 fluorescence intensity (a.u.).

Regarding “TATATTTACACGGGTAAGCAACTTCCTTTTCAAGTAGAACCGGAGTCACCTAGTGCAG”, the binding signal was 18700 fluorescence intensity (a.u.).

For “TCAGGAGGCTCCTCCTCGACAGCATCAGTAAGCTTCGGGGCGGAGTCACCTAGTGCAG”, the binding signal was 3570 fluorescence intensity (a.u.).

For the sequence “AACGCCCTCCCCGACGCGGTCACCCGGCGCCTGACGCGGCCGGAGTCACCTAGTGCAG”, the binding signal is 4320 fluorescence intensity (a.u.).

As to “GCCGCCGCCACCGCCACCGCCACCGCCCACCTCCGCCGCCCGGAGTCACCTAGTGCAG”, the binding signal was 3540 fluorescence intensity (a.u.).

Turning to “ATGTTGACTGGACTAGCACGTGTACGCCACGTAGACCAAACGGAGTCACCTAGTGCAG”, the binding signal was 4790 fluorescence intensity (a.u.).

For “GGCGTCGCGGCGCTGGCGGTGTACGCCGCCGGCGGCGCCGCGGAGTCACCTAGTGCAG”, the binding signal is 3780 fluorescence intensity (a.u.).

Turning to “AGGACAATGCAATGTGTACACCGTGGAGATGCCCAACAGTCGGAGTCACCTAGTGCAG”, the binding signal is 3780 fluorescence intensity (a.u.).

For “TCACACATGATCGTATCAATATCCATCGACACGTGCACATCGGAGTCACCTAGTGCAG”, the binding signal was 6520 fluorescence intensity (a.u.).

Consider “AGGTCGAGGGAGAAGGGGTCGAACACGTTGCTGCGGCGGACGGAGTCACCTAGTGCAG”, for which the binding signal was 4140 fluorescence intensity (a.u.).

Regarding “CTGCTCCTAGTCACACTTGACAGTTCAGCTTCAGCTCCTCCGGAGTCACCTAGTGCAG”, the binding signal is 6360 fluorescence intensity (a.u.).

Regarding “CTGGATGGTGGTGGTCGAACTATCAGGGGCGTTATGCATACGGAGTCACCTAGTGCAG”, the binding signal is 3680 fluorescence intensity (a.u.).

Turning to “CCCACCACACACCCGGCCCCACATGTCATCCACCCATCCACGGAGTCACCTAGTGCAG”, the binding signal is 4500 fluorescence intensity (a.u.).

“TCCTGTCGTTTACGTTTACGTGTACTTTCACTGTGCACGTCGGAGTCACCTAGTGCAG”: the binding signal was 4160 fluorescence intensity (a.u.).

Regarding “GAGGGAAATCGATCTGAGAGGGAGGAGGGGAGGAGGGGAGCGGAGTCACCTAGTGCAG”, the binding signal was 3900 fluorescence intensity (a.u.).

“CAAGTGGTTTTGTGTGGTGGAGTGCGATGGCAGGGACGGGCGGAGTCACCTAGTGCAG”: the binding signal is 3480 fluorescence intensity (a.u.).
